This test has as its target T1, Biotin-labeled Dleu2-17aa (mouse).
T1 sequence (peptide, biotin (position not stated)): MLGRRARRRGRGRRRPA
Kind of test: pull-down; Biotin-Dleu2-17aa incubated with EL4 cell lysate, streptavidin-agarose, SDS-PAGE, western blot for Smad3; only the target purified. A general note: A western blot detects proteins with antibodies after separation by electrophoresis.

The chains behind the UniProt entries cited, without tags or fusion partners.
UniProt Q8BUN5: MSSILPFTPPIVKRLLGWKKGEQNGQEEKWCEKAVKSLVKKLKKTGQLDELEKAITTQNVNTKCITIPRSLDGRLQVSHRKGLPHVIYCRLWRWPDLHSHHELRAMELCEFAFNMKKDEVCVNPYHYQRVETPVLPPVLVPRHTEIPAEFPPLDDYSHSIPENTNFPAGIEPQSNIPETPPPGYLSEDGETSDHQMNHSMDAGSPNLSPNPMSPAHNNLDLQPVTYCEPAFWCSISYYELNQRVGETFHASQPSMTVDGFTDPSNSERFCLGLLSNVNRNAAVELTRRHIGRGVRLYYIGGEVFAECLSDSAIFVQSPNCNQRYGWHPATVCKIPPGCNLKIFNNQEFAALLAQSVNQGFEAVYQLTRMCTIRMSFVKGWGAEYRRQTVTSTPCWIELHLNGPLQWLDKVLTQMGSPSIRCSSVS

No constants are given. Whether binding was seen depends on the method and setting. Binding seen in cells or lysates may run through a third protein. Some entries that bind do so weakly or less than the wild type.

With “SMAD Family Member 3 (Smad3), endogenous (from UniProt Q8BUN5 1-425)”, the binding entry is given as “binds”.

Values taken from publication PMC10933344, “A lncRNA Dleu2-encoded peptide relieves autoimmunity by facilitating Smad3-mediated Treg induction” (EMBO Reports, 2024).
